Results deposited as PubChem BioAssay AID652243 (Drosophila RNAi Screening Center, 2013)
The screen tested about 24,000 reagents; below is an unselected part of those with a known target gene and a result. Of all reagents, 246 (1%) got an active call. 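Plates not normalised; calls are printed but the firefly/Renilla ratio behind them is not deposited; fold cut for lowering reported inconsistently.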 Raw values vary from plate to plate and are shown uncorrected. Names joined by + are all predicted targets of the reagent. The record does not give: the amount of reagent.

Aim: 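Fly regulators of androgen-dependent reporter output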 (primary screen)
Cells: Drosophila S2R+ cells
Reagent: long dsRNA against Drosophila genes
Duration: 72 h (48 h, then 24 h hormone)
Challenge: synthetic androgen R1881 at 10 nM for 24 h
Measurement: 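Per-well raw luminescence of the androgen-driven firefly reporter and of the Renilla control, two replicates each, without normalisation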
Direction: firefly reporter light: higher = more light from androgen-responsive reporter; Renilla control light: higher = more constitutive control signal (cell number, transfection)
Call rule: 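Across duplicate plates, a knock-down whose log firefly/Renilla ratio shifted a set fold down or up from the GFP/LacZ control mean was a hit; the downward cut appears as both 1.5 and 3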
Meaning of the calls: active = hit: reporter lowered or raised; inactive = no hit

Target gene,DRSC id,"firefly reporter light, replicate 1","firefly reporter light, replicate 2","Renilla control light, replicate 1","Renilla control light, replicate 2",Call
bond,DRSC16135,46140,69531,4.94e5,5.01e5,inactive
bond,DRSC23724,7.97e5,7.01e5,8.98e5,9.36e5,inactive
shps,DRSC14614,1.25e5,1.44e5,1.78e6,1.93e6,inactive
Bcs1,DRSC02789,85645,75907,6.83e5,6.28e5,inactive
CG12540,DRSC19471,5.68e5,5.54e5,3.91e6,4.21e6,inactive
CG32379,DRSC10318,1.01e5,1.84e5,1.06e6,1.24e6,inactive
AgmNAT,DRSC18072,1.58e5,1.70e5,1.41e6,2.51e6,inactive
stan,DRSC05234,10424,13186,1.09e5,1.20e5,active
stan,DRSC07697,2.44e5,2.18e5,1.94e6,1.55e6,inactive
CG7728,DRSC10907,52108,60166,4.88e5,3.40e5,inactive
CG7728,DRSC28948,9.73e5,7.85e5,2.01e6,1.59e6,inactive
LamC,DRSC07453,9.26e5,8.42e5,2.71e6,2.32e6,inactive
LamC,DRSC25517,2.91e5,2.82e5,4.58e5,2.51e5,inactive
CG15117,DRSC06539,1.70e6,1.56e6,7.49e5,6.75e5,inactive
CG15117,DRSC25471,5.86e5,5.34e5,6.28e5,6.29e5,inactive
Hsp70Aa + Hsp70Ab,DRSC21246,84468,91243,3.01e5,2.84e5,inactive
Hsp70Aa + Hsp70Ab,DRSC29327,3.91e5,4.36e5,1.58e6,1.58e6,active
CG5623,DRSC15848,2.24e5,1.67e5,3.20e6,2.88e6,inactive
axed,DRSC08833,1.60e5,1.07e5,3.01e5,1.48e5,inactive
axed,DRSC10982,92885,74349,1.73e6,9.97e5,inactive
cue,DRSC08248,1.84e6,1.81e6,2.26e6,1.48e6,inactive
CG31997,DRSC17105,1.28e6,8.25e5,3.40e6,1.38e6,inactive
lncRNA:CR34052,DRSC37874,8.94e5,7.84e5,2.20e6,1.77e6,inactive
AsnS,DRSC11468,1.53e5,1.32e5,2.34e5,2.17e5,inactive
Nlg2,DRSC00957,8.58e5,3.60e5,1.21e5,49441,inactive
Nlg2,DRSC03578,1.38e5,2.81e5,2.52e6,2.34e6,inactive
Nlg2,DRSC25217,3.13e5,3.58e5,4.44e5,5.24e5,inactive

Ordered by “Renilla control light, replicate 1” (ascending): 2 of the entries above
Target gene,DRSC id,"firefly reporter light, replicate 1","firefly reporter light, replicate 2","Renilla control light, replicate 1","Renilla control light, replicate 2",Call
CG15117,DRSC25471,5.86e5,5.34e5,6.28e5,6.29e5,inactive
CG15117,DRSC06539,1.70e6,1.56e6,7.49e5,6.75e5,inactive

Continued.
Target gene,DRSC id,"firefly reporter light, replicate 1","firefly reporter light, replicate 2","Renilla control light, replicate 1","Renilla control light, replicate 2",Call
Mkp3,DRSC10084,78652,1.01e5,5.68e5,6.54e5,active
Mkp3,DRSC10085,3.26e5,2.44e5,2.60e6,2.12e6,inactive
CG12860,DRSC06200,48762,59517,9.54e5,9.54e5,inactive
CG12860,DRSC26264,2.91e5,3.45e5,7.11e5,6.91e5,inactive
lqfR,DRSC14703,41379,32936,96545,1.05e5,inactive
lqfR,DRSC14704,2.00e5,2.58e5,3.07e6,3.72e6,inactive
lqfR,DRSC25247,7.66e5,7.36e5,9.83e5,8.86e5,inactive
CCAP-R,DRSC14891,1.74e5,1.98e5,2.27e6,2.55e6,inactive
CCAP-R,DRSC15967,1.19e5,2.09e5,1.73e6,2.13e6,inactive
CCAP-R,DRSC29494,1.08e6,8.60e5,1.38e6,1.38e6,inactive
Grp170,DRSC18524,86765,77731,9.35e5,7.28e5,inactive
Grp170,DRSC24799,4.81e5,4.70e5,8.19e5,7.72e5,inactive
Tk,DRSC14954,4.41e5,4.72e5,1.81e6,2.16e6,inactive
Tk,DRSC21972,6.04e5,7.35e5,1.56e6,1.38e6,inactive
Tk,DRSC27140,2.66e5,2.36e5,6.52e5,4.22e5,inactive
CG31337,DRSC12981,2.42e5,1.96e5,3.14e5,4.79e5,inactive
L,DRSC06666,37749,54848,1.24e6,1.24e6,inactive
L,DRSC06668,54641,45565,7.70e5,7.70e5,inactive
L,DRSC29770,4.58e5,3.35e5,1.56e6,1.88e6,inactive
CG11498,DRSC14315,86750,1.05e5,1.12e6,1.69e6,inactive
Spn27A,DRSC03608,89912,2.14e5,9.71e5,1.62e6,inactive
CG7492,DRSC10855,8.21e5,4.17e5,1.24e6,9.50e5,inactive
CG9899,DRSC04597,3.06e5,3.17e5,2.45e6,1.72e6,inactive
vanin-like,DRSC17440,3.89e5,6.26e5,8.76e5,8.03e5,inactive
mAcon1,DRSC01853,93189,1.24e5,1.50e6,1.46e6,inactive
mAcon1,DRSC24875,1.60e6,1.13e6,1.32e6,1.00e6,inactive
mAcon1,DRSC38959,1.04e6,7.59e5,2.08e6,1.90e6,inactive
Tdrd3,DRSC10016,1.32e5,1.63e5,1.39e6,1.16e6,inactive
aop,DRSC22999,1.01e6,1.05e6,1.24e6,1.55e6,inactive
aop,DRSC25805,2.63e5,2.75e5,6.28e5,4.47e5,inactive
aop,DRSC39162,8.40e5,7.09e5,1.40e6,1.28e6,inactive
